In patent publication EP3122861B1, “LIQUID DETERGENT COMPOSITIONS COMPRISING AN ALPHA-AMYLASE” (priority 2014, dated 2015):

Test: Determination of log K by ITC (isothermal titration calorimetry)
Type: binding
Details: pH 10
Description: Chelating agents can also be characterized by the binding constant of the chelating agent (chelator) and calcium ions. This constant can be determined by ITC (isothermal titration calorimetry) as described by AD Nielsen, CC Fuglsang and […], Analytical Biochemistry Vol. 314 (2003) page 227-234 and T Wiseman, S Williston, JF Brandts and L-N Lin, Analytical Biochemistry Vol. 179 (1989) page 131-137. All glassware and plastic bottles used are washed with a 1 % (w/w) EDTA solution and subsequently rinsed thoroughly in Chelex 100 treated ultrapure water (Milli-Q water). Solutions are stored in plastic bottles and kept at 5°C until use. […] • 125 μM chelant in 20 mM HEPES, pH 8 or 125 μM chelant in 20 mM glycine, pH 10 • 4 mM CaCl2 in 20 mM HEPES, pH 8 or 4 mM CaCl2 in 20 mM glycine, pH 10 • Ultrapure water (Milli-Q water) […] All solutions are degassed by stirring under vacuum before the experiments. INSTRUMENT: MCS-ITC (MicroCal Inc., Northampton, MA, USA) The reference cell is filled with ultrapure water (Milli-Q water). The sample cell is filled with the chelant solution at the selected pH and the syringe is filled with the calcium solution at the selected pH. The solutions are equilibrated to the desired temperature, e.g. 19°C. […] The obtained signals from the ITC are then integrated using the Origin software supplied by MicroCal Inc. To obtain the binding isotherms, regression routines are made using the same software package. […] Presently preferred is the "OneSites" model which gives the best fit for most of the commonly used chelating agents, i.e. the residuals are evenly distributed around zero. […] Alternatively, the chelating agents can be characterized by the binding constant of the chelating agent (chelator) and calcium ions. This constant can be determined by ITC (isothermal titration calorimetry) as described by AD Nielsen, CC Fuglsang and […], Analytical Biochemistry Vol. 314 (2003) page 227-234 and T Wiseman, S Williston, JF Brandts and L-N Lin, Analytical Biochemistry Vol. 179 (1989) page 131-137. The procedure for the determination of log K is described in detail above under "Materials and Methods". Using this procedure for determination of log K, the following log K values for several chelating agents were determined at pH 10 (Table 12.3). Table 12.3

Row | SMILES | Log K relative to log K for citrate
1 | O=C(O)CC(O)(CC(=O)O)C(=O)O [Citrate] | 1.00
2 | O=C(O)CN(CCN(CC(=O)O)CC(=O)O)CCN(CC(=O)O)CC(=O)O [DTPA, diethylenetriaminepentaacetic acid] | 2.7
3 | O=C(O)CN(CCN(CC(=O)O)CC(=O)O)CC(=O)O [EDTA, ethylene diamine tetraacetate] | 2.7
4 | O=C(O)CN(CCOCCOCCN(CC(=O)O)CC(=O)O)CC(=O)O [EGTA, ethylene glycol tetraacetic acid] | 3.0
5 | CC(O)(P(=O)(O)O)P(=O)(O)O [HEDP, 1-Hydroxyethylidene-1,1-Diphosphonic Acid] | 2.0
6 | C[C@@H](C(=O)O)N(CC(=O)O)CC(=O)O [MGDA, methylglycinediacetic acid or N,N'-bis(carboxymethyl)alanine] | 0.33
